Reference: PubChem BioAssay AID493014 (National Center for Advancing Translational Sciences (NCATS), 2011)
“And” between values parts separate entries of the source, which are not always exact repeats. Equal entries are not always repeated. The list shows a part of the results. Further columns of the screen follow, without active or inactive calls. Compounds called inactive in the main read-out are mostly missing here. Words in brackets tell the shape of the fitted curve; partial curves, single points and poor fits give uncertain potencies.

Assay: qHTS Assay to Find Inhibitors of Chronic Active B-Cell Receptor Signaling
Conditions: ABC-DLBCL IkBa-CBG/CBR reporter, luminescence ratio (green luciferase fused to IkBa over red control in TMD8 lymphoma cells), 4 h
Outline: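 Compounds up to 46 uM were incubated four hours with TMD8 cells whose green CBG68 luciferase is fused to IkappaBalpha; red CBR luminescence normalised the signal, and concentration-effect curves were fitted to fusion, red and ratio data.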

[1] = measured here: IkBa-CBG green luminescence
[2] = measured here: CBR red luminescence, cell number

For `COC(=O)CCC(=O)Nc1sc2c(c1C#N)CCCC2`, the AC50 [1] was 15.8 µM [falling, single point].

For `CCOC(=O)Cc1nc2nc(C)cc(C)n2n1`, the AC50 [2] was 14.1 µM [rising, partial curve, poor fit].

With `Cc1cc(NCCCn2ccnc2)n2nc(-c3ccc(F)cc3)cc2n1` the AC50 [2] was 10.3 µM [falling, partial curve, poor fit].

For `CC(C)C(=O)NCCc1nc2ccccc2n1C`, the AC50 [2] was 0.651 µM [falling, full curve].

In the case of `O=C(NCc1ccco1)C(c1ccccc1)N(C(=O)Cc1cccs1)c1ccccc1F` (configuration not stated), the AC50 [2] is reported as 11.2 µM [falling, partial curve, poor fit].

With `O=c1c(Cl)c(NCc2ccco2)cnn1C12CC3CC(CC(C3)C1)C2` the AC50 [2] was 22.4 µM [rising, single point].

In the case of `C/C(=N\Nc1ccc(S(N)(=O)=O)cc1[N+](=O)[O-])c1ccc2c(c1)OCO2`, the AC50 [2] is reported as 14.1 µM [rising, partial curve, poor fit].

In the case of `CC(C)(C)NC(=O)c1cc(-c2ccccc2)n[nH]1`, the AC50 [2] is reported as 35.5 µM [falling, single point].

With `CCOC(=O)c1ccccc1NC(=O)CSc1nc2ccccc2o1` the AC50 [2] was 20 µM [rising, single point].

With `Cc1nc2ccccn2c1C(=O)NN=C1CCCC1` the AC50 [2] was 3.16 µM [falling, single point].

For `COc1ccccc1-c1cc(C(=O)Nc2c(C)n(C)n(-c3ccccc3)c2=O)no1`, the AC50 [2] was 8.91 µM [falling, partial curve, poor fit].

For `Cn1c(/C=N/c2nc3ccccc3[nH]2)nc2ccccc21`, the AC50 [2] was 25.9 µM [falling, single point].

In the case of `O=C(CSc1nnc(-c2ccco2)o1)N1CCCCC1`, the AC50 [2] is reported as 35.5 µM [falling, single point].

For `Cc1cccc(C(=O)Nc2ccc(C(=O)/C=C/c3ccncc3)cc2)c1`, the AC50 [2] was 12.6 µM [rising, single point] and the AC50 [1] was 35.5 µM [falling, single point].

With `CC[C@]1(c2ccccc2OC)ON(c2ccccc2C(F)(F)F)C1=O` the AC50 [2] was 32.6 µM [falling, single point].

With `O=C(NC1CCCCC1)c1cc2cc(Br)ccc2o1` the AC50 [2] was 3.55 µM [falling, partial curve].

In the case of `CCOC(=O)CCc1c(C)nc2ncnn2c1C`, the AC50 [2] is reported as 35.5 µM [falling, single point].

In the case of `COc1ccc(OC)c(-c2nn(-c3ccccc3)cc2C(=O)NCC(c2ccco2)N2CCCC2)c1` (configuration not stated), the AC50 [2] is reported as 4.11 µM [falling, single point].

With `CC(CCc1ccccc1)NC(=O)C(=O)Nc1ccccc1` (configuration not stated) the AC50 [2] was 14.6 µM [falling, partial curve].

In the case of `COc1cc(OC)cc(C(=O)Nc2ccc(S(=O)(=O)Nc3ccccn3)cc2)c1`, the AC50 [2] is reported as 2.51 µM [falling, partial curve, poor fit].

For `O=C1c2ccc3c4c(ccc(c24)C(=O)N1c1cccc(O)c1)C(=O)N(c1cccc(O)c1)C3=O`, the AC50 [2] was 10 µM [falling, partial curve, poor fit].

With `COc1cc(NC(=O)C2=CC(c3ccc(C)cc3)=NS(=O)(=O)N2C)cc(OC)c1OC` the AC50 [2] was 35.5 µM [falling, single point].

With `O=C(O)C1Sc2[nH]c(=O)sc2C2c3cc(Br)ccc3OC(=O)C12` (configuration not stated) the AC50 [2] was 35.5 µM [rising, single point].

In the case of `CCOC(=O)c1ccc(NC(=O)c2ccc(OC(C)C)c(OC)c2)cc1`, the AC50 [2] is reported as 14.1 µM [falling, single point].

With `CC(=O)NC(Cc1c[nH]c2ccccc12)C(=O)N/N=C/c1ccccc1` (configuration not stated) the AC50 [2] was 3.55 µM [rising, partial curve, poor fit].

With `COCCNC(=S)N(CCc1c(C)[nH]c2ccc(F)cc12)Cc1ccco1` the AC50 [2] was 20 µM [falling, single point].

In the case of `COc1ccc(CN2CCN(c3ncccn3)CC2)c(OC)c1`, the AC50 [2] is reported as 14.6 µM [rising, single point].

With `CCOc1ccc(N(CC(=O)NCc2ccc3c(c2)OCO3)C(=O)c2csnn2)cc1` the AC50 [2] was 35.5 µM [falling, single point].

For `CCCCCOC(=O)C1=C(C)Nc2ncnn2C1c1cccs1` (configuration not stated), the AC50 [2] was 4.11 µM [falling, partial curve, poor fit].

In the case of `CCOc1ccccc1NC(=O)C1CCC(CNc2c(N3CCCCC3)c(=O)c2=O)CC1` (configuration not stated), the AC50 [2] is reported as 0.631 µM [falling, full curve, poor fit] and the AC50 [1] is reported as 0.794 µM [rising, full curve, poor fit].

For `O=S(=O)(Nc1cccnc1)c1cccs1`, the AC50 [2] was 29.1 µM [falling, single point].

For `COC(=O)N=Nc1c(O)[nH]c2ccc(Br)cc12`, the AC50 [2] was 17.8 µM [falling, partial curve, poor fit].

In the case of `O=C(O)CCC(=O)N1N=C(c2ccc(Br)cc2)CC1c1cccc(Br)c1` (configuration not stated), the AC50 [2] is reported as 8.91 µM [falling, single point].

With `CC(C(=O)NC1C=CS(=O)(=O)C1)N1C(=O)/C(=C/c2ccc(Cl)cc2)SC1=S` (configuration not stated) the AC50 [2] was 11.2 µM [falling, partial curve].

With `COc1ccccc1NC(=S)N(CCc1nc2cc(C)c(C)cc2[nH]1)Cc1cccnc1` the AC50 [2] was 0.447 µM [falling, partial curve, poor fit].

For `COc1cc2c(=O)n(Cc3ccccc3)c(=O)n(CC(=O)NCC3CCCO3)c2cc1OC` (configuration not stated), the AC50 [2] was 18.4 µM [falling, partial curve].

For `CC(C)N(Cc1cn[nH]c1-c1ccc(-c2ccccc2)cc1)Cc1nccn1C`, the AC50 [2] was 35.5 µM [falling, single point].

For `Cc1ccccc1NC(=O)NCCCN1CCN(c2ccccc2)CC1`, the AC50 [2] was 23.1 µM [rising, partial curve, poor fit].

For `Cc1c(NC(=S)N/N=C/c2ccc(Br)cc2)c(=O)n(-c2ccccc2)n1C`, the AC50 [2] was 0.708 µM [falling, partial curve].

In the case of `COc1cc(CN2CCc3ccccc3C2)cc([N+](=O)[O-])c1O`, the AC50 [2] is reported as 11.2 µM [rising, partial curve].

In the case of `Cc1ccc2oc(-c3ccc(NC(=O)c4ccncc4)cc3O)nc2c1`, the AC50 [2] is reported as 0.562 µM [rising, full curve, poor fit].

In the case of `O=C(NCCCCc1ccccc1)c1ccccc1F`, the AC50 [2] is reported as 10 µM [falling, partial curve, poor fit].

In the case of `CC(C)NS(=O)(=O)c1ccc(OCC(=O)Nc2ccc3c(c2)OCO3)c(Cl)c1`, the AC50 [2] is reported as 0.082 µM [rising, full curve, poor fit].

With `C/C(CC(=O)Nc1ccc(C)c(Cl)c1)=N\NC(=O)c1ccco1` the AC50 [2] was 11.2 µM [falling, partial curve, poor fit].

For `CC(C)(C)c1cc(NC(=O)C2CCCO2)no1` (configuration not stated), the AC50 [2] was 0.517 µM [rising, full curve, poor fit].

In the case of `CS(=O)(=NS(=O)(=O)c1ccc(Cl)cc1)c1ccccc1` (configuration not stated), the AC50 [2] is reported as 15.8 µM [rising, partial curve, poor fit].

With `Cc1cnc(=O)[nH]c1SCC(=O)Nc1nccs1` the AC50 [2] was 29.1 µM [falling, single point].

For `COC(=O)Cc1cc(=O)n(-c2nc3ccccc3s2)[nH]1`, the AC50 [2] was 8.2 µM [falling, partial curve, poor fit].

For `Cc1ccccc1NS(=O)(=O)c1cc(S(C)(=O)=O)ccc1Cl`, the AC50 [2] was 0.259 µM [rising, full curve, poor fit].

For `CCOc1ccccc1NC(=S)Nc1ccc2cn[nH]c2c1`, the AC50 [2] was 12.6 µM [falling, partial curve, poor fit].

For `Cc1ccc(N2C(S)=C(C#N)C(=O)NC2c2ccco2)cc1` (configuration not stated), the AC50 [2] was 6.31 µM [rising, full curve, poor fit].

With `CCn1cc(C2=NC(CC(C)C)CO2)c2ccccc21` (configuration not stated) the AC50 [2] was 0.708 µM [rising, full curve, poor fit].

For `O=C(O)/C=C/C(=O)Nc1ccc(-c2ccccc2)cc1`, the AC50 [2] was 25.1 µM [falling, single point] and 35.5 µM [falling, single point].

For `Cc1cc(C)n2[nH]c(=O)c(N=Nc3cccc(C(F)(F)F)c3)c2n1`, the AC50 [2] was 6.51 µM [rising, single point].

For `COc1cccc(NC2CC(=O)N(CCc3ccccc3)C2=O)c1` (configuration not stated), the AC50 [2] was 4.47 µM [falling, partial curve, poor fit].

For `Cc1ccc(NC(=O)c2ccccn2)c(Br)c1`, the AC50 [2] was 12.6 µM [rising, partial curve, poor fit].

With `C/C(Cn1cnc([N+](=O)[O-])n1)=N\NC(=O)c1ccc(F)cc1` the AC50 [2] was 13 µM [falling, partial curve].

With `CC(Sc1ccc(Cl)cc1)C(=O)Nc1ccccc1C(=O)N1CCOCC1` (configuration not stated) the AC50 [2] was 0.82 µM [falling, full curve, poor fit].

In the case of `O=c1cc(-c2ccco2)oc2ccc(Cl)cc12`, the AC50 [2] is reported as 1.03 µM [rising, full curve, poor fit].

With `COc1cccc(-n2c(SCc3ccccn3)nc3c(c2=O)SCC3)c1` the AC50 [2] was 35.5 µM [rising, single point].

In the case of `Oc1ccccc1-c1cc(-c2ccccc2)no1`, the AC50 [2] is reported as 3.98 µM [falling, partial curve].

For `Brc1cc2c(cc1/C=N/Nc1nc(N3CCCCC3)nc(N3CCCCC3)n1)OCO2`, the AC50 [2] was 10 µM [falling, partial curve].

With `O=Nc1c(O)n(Cc2c(Cl)cccc2Cl)c2ccccc12` the AC50 [2] was 2.59 µM [rising, full curve, poor fit].

In the case of `CN(C)c1ccc(/C=C2\SC(N3CCCCC3)=NC2=O)cc1`, the AC50 [2] is reported as 0.1 µM [rising, full curve, poor fit].

In the case of `CSc1ccccc1NC(=O)c1cccc(S(=O)(=O)N2CCN(C)CC2)c1`, the AC50 [2] is reported as 6.31 µM [rising, single point].
